Measurements reported in PubChem BioAssay AID1259405 (NCATS, 2018)

Aim: 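Silenced genes that increase secreted GFP made by CHO cells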 (primary screen)
Cells: Chinese hamster CHO-K1 ovary cells with stable secreted eGFP expression
Reagents: single siRNA against mouse genes, 0.8 pmol siRNA per well (2 µl of 400 nM stock)
Duration: 3 days
Measured: 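Per-well intracellular GFP measured by laser scanning cytometry, plus viability from ATP luminescence, each relative to plate median of non-targeting control wells, in %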
Scale: GFP, % of control: higher = more GFP per well, higher productivity; viability (ATP), % of control: higher = more viable cells (more ATP)
Call rule: 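a knock-down is called active if GFP reaches 120% or more of non-targeting control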
This is an unselected part of about 50,000 reagents tested. Over the whole deposit, about 4,000 (8%) were called active. 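Mouse siRNA library applied to hamster cells; one well for each siRNA.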 Entries without a mark were called inactive. Reagents against one gene are numbered here.

Oxr1 #1 — GFP, % of control: 63.7; viability (ATP), % of control: 69.5
Oxr1 #2 — GFP, % of control: 59.4; viability (ATP), % of control: 87.1
Oxr1 #3 — GFP, % of control: 73.2; viability (ATP), % of control: 98.2
Fgfr1 #1 — GFP, % of control: 66.2; viability (ATP), % of control: 72.8
Fgfr1 #2 — GFP, % of control: 96.9; viability (ATP), % of control: 93.8
Fgfr1 #3 — GFP, % of control: 62.7; viability (ATP), % of control: 59.3
Lsp1 #1 — GFP, % of control: 81.1; viability (ATP), % of control: 66.2
Lsp1 #2 — GFP, % of control: 47.1; viability (ATP), % of control: 42.7
Lsp1 #3 — GFP, % of control: 155 (active); viability (ATP), % of control: 68.1
S100pbp #1 — GFP, % of control: 100; viability (ATP), % of control: 90.4
S100pbp #2 — GFP, % of control: 83.5; viability (ATP), % of control: 37.3
S100pbp #3 — GFP, % of control: 93.3; viability (ATP), % of control: 78.2
Ldhb #1 — GFP, % of control: 97.6; viability (ATP), % of control: 104
Ldhb #2 — GFP, % of control: 98.6; viability (ATP), % of control: 78.8
Ldhb #3 — GFP, % of control: 66.2; viability (ATP), % of control: 69
Cntnap1 #1 — GFP, % of control: 82.1; viability (ATP), % of control: 85.9
Cntnap1 #2 — GFP, % of control: 87.6; viability (ATP), % of control: 57.4
Cntnap1 #3 — GFP, % of control: 87.9; viability (ATP), % of control: 94.4
Abcg1 #1 — GFP, % of control: 153 (active); viability (ATP), % of control: 68
Abcg1 #2 — GFP, % of control: 40; viability (ATP), % of control: 43.2
Abcg1 #3 — GFP, % of control: 89.3; viability (ATP), % of control: 83.5
Ndp #1 — GFP, % of control: 127 (active); viability (ATP), % of control: 61.4
Ndp #2 — GFP, % of control: 60.9; viability (ATP), % of control: 83.8
Ndp #3 — GFP, % of control: 68.5; viability (ATP), % of control: 81.3
Mrpl11 #1 — GFP, % of control: 85.2; viability (ATP), % of control: 77.1
Mrpl11 #2 — GFP, % of control: 108; viability (ATP), % of control: 87.6
Mrpl11 #3 — GFP, % of control: 92.7; viability (ATP), % of control: 90.8
Ankk1 — GFP, % of control: 134 (active); viability (ATP), % of control: 110
Capn1 #1 — GFP, % of control: 60.2; viability (ATP), % of control: 75
Capn1 #2 — GFP, % of control: 64.2; viability (ATP), % of control: 39.1
Capn1 #3 — GFP, % of control: 94.8; viability (ATP), % of control: 99.5
Htr3a #1 — GFP, % of control: 82.1; viability (ATP), % of control: 70.1
Htr3a #2 — GFP, % of control: 82.6; viability (ATP), % of control: 47.6
Htr3a #3 — GFP, % of control: 136 (active); viability (ATP), % of control: 71
Ctso #1 — GFP, % of control: 71.4; viability (ATP), % of control: 100
Ctso #2 — GFP, % of control: 73.4; viability (ATP), % of control: 59.4
Ctso #3 — GFP, % of control: 76.4; viability (ATP), % of control: 60.2
Nup133 #1 — GFP, % of control: 60.9; viability (ATP), % of control: 67.3
Nup133 #2 — GFP, % of control: 46.1; viability (ATP), % of control: 67.4
Nup133 #3 — GFP, % of control: 76.5; viability (ATP), % of control: 63.7

Sorted by “GFP, % of control” (ascending): some entries from above.
Abcg1 #2 — GFP, % of control: 40; viability (ATP), % of control: 43.2
Cntnap1 #2 — GFP, % of control: 87.6; viability (ATP), % of control: 57.4
Cntnap1 #3 — GFP, % of control: 87.9; viability (ATP), % of control: 94.4
Abcg1 #3 — GFP, % of control: 89.3; viability (ATP), % of control: 83.5
Ndp #1 — GFP, % of control: 127 (active); viability (ATP), % of control: 61.4
Abcg1 #1 — GFP, % of control: 153 (active); viability (ATP), % of control: 68
